No constants are given. Whether binding was seen depends on the method and setting. In cells and extracts the contact can be indirect. Here binding means that the protein was enriched with, or labelled near, the bait; the list need not be complete.
What follows are substances tested against MCL1^TurboID (full-length MCL1 fused to two NLS and a C-terminal TurboID) (UniProt Q07820) (assay: proximity labelling; TurboID proximity biotinylation in live transfected HCT116 and HeLa cells: MCL1^TurboID (two NLS) compared with an identical GFP^TurboID construct; 67 uM biotin, 15-20 min, 37°C; RIPA lysis, streptavidin magnetic beads, on-bead trypsin digest, LC-MS/MS; SAINT, hits at SP > 0.8; technical triplicate).

Chains of the proteins cited; added tags and fusions are not shown.
UniProt Q92973: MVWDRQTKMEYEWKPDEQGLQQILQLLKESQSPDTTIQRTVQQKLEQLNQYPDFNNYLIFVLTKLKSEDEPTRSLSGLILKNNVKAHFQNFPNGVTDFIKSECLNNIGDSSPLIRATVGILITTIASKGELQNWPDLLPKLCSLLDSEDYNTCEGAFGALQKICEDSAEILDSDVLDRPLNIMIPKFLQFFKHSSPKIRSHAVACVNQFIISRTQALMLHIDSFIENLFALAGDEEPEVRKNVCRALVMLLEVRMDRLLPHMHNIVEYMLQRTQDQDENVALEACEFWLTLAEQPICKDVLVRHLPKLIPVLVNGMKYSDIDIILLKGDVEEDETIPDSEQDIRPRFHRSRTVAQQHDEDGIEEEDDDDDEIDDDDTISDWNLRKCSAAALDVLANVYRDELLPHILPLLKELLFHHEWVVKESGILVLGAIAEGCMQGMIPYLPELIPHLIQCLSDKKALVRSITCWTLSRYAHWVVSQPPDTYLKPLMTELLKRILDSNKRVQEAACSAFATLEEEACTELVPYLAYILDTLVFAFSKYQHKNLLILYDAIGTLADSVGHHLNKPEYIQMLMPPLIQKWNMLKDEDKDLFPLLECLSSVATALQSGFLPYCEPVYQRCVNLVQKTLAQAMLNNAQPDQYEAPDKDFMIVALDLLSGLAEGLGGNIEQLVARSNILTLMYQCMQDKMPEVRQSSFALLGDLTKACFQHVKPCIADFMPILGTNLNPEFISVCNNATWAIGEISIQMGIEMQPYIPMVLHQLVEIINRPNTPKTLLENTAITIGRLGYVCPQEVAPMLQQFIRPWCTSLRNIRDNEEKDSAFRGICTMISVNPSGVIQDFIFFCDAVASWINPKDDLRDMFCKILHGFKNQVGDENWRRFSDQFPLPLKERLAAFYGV
UniProt Q7Z6Z7: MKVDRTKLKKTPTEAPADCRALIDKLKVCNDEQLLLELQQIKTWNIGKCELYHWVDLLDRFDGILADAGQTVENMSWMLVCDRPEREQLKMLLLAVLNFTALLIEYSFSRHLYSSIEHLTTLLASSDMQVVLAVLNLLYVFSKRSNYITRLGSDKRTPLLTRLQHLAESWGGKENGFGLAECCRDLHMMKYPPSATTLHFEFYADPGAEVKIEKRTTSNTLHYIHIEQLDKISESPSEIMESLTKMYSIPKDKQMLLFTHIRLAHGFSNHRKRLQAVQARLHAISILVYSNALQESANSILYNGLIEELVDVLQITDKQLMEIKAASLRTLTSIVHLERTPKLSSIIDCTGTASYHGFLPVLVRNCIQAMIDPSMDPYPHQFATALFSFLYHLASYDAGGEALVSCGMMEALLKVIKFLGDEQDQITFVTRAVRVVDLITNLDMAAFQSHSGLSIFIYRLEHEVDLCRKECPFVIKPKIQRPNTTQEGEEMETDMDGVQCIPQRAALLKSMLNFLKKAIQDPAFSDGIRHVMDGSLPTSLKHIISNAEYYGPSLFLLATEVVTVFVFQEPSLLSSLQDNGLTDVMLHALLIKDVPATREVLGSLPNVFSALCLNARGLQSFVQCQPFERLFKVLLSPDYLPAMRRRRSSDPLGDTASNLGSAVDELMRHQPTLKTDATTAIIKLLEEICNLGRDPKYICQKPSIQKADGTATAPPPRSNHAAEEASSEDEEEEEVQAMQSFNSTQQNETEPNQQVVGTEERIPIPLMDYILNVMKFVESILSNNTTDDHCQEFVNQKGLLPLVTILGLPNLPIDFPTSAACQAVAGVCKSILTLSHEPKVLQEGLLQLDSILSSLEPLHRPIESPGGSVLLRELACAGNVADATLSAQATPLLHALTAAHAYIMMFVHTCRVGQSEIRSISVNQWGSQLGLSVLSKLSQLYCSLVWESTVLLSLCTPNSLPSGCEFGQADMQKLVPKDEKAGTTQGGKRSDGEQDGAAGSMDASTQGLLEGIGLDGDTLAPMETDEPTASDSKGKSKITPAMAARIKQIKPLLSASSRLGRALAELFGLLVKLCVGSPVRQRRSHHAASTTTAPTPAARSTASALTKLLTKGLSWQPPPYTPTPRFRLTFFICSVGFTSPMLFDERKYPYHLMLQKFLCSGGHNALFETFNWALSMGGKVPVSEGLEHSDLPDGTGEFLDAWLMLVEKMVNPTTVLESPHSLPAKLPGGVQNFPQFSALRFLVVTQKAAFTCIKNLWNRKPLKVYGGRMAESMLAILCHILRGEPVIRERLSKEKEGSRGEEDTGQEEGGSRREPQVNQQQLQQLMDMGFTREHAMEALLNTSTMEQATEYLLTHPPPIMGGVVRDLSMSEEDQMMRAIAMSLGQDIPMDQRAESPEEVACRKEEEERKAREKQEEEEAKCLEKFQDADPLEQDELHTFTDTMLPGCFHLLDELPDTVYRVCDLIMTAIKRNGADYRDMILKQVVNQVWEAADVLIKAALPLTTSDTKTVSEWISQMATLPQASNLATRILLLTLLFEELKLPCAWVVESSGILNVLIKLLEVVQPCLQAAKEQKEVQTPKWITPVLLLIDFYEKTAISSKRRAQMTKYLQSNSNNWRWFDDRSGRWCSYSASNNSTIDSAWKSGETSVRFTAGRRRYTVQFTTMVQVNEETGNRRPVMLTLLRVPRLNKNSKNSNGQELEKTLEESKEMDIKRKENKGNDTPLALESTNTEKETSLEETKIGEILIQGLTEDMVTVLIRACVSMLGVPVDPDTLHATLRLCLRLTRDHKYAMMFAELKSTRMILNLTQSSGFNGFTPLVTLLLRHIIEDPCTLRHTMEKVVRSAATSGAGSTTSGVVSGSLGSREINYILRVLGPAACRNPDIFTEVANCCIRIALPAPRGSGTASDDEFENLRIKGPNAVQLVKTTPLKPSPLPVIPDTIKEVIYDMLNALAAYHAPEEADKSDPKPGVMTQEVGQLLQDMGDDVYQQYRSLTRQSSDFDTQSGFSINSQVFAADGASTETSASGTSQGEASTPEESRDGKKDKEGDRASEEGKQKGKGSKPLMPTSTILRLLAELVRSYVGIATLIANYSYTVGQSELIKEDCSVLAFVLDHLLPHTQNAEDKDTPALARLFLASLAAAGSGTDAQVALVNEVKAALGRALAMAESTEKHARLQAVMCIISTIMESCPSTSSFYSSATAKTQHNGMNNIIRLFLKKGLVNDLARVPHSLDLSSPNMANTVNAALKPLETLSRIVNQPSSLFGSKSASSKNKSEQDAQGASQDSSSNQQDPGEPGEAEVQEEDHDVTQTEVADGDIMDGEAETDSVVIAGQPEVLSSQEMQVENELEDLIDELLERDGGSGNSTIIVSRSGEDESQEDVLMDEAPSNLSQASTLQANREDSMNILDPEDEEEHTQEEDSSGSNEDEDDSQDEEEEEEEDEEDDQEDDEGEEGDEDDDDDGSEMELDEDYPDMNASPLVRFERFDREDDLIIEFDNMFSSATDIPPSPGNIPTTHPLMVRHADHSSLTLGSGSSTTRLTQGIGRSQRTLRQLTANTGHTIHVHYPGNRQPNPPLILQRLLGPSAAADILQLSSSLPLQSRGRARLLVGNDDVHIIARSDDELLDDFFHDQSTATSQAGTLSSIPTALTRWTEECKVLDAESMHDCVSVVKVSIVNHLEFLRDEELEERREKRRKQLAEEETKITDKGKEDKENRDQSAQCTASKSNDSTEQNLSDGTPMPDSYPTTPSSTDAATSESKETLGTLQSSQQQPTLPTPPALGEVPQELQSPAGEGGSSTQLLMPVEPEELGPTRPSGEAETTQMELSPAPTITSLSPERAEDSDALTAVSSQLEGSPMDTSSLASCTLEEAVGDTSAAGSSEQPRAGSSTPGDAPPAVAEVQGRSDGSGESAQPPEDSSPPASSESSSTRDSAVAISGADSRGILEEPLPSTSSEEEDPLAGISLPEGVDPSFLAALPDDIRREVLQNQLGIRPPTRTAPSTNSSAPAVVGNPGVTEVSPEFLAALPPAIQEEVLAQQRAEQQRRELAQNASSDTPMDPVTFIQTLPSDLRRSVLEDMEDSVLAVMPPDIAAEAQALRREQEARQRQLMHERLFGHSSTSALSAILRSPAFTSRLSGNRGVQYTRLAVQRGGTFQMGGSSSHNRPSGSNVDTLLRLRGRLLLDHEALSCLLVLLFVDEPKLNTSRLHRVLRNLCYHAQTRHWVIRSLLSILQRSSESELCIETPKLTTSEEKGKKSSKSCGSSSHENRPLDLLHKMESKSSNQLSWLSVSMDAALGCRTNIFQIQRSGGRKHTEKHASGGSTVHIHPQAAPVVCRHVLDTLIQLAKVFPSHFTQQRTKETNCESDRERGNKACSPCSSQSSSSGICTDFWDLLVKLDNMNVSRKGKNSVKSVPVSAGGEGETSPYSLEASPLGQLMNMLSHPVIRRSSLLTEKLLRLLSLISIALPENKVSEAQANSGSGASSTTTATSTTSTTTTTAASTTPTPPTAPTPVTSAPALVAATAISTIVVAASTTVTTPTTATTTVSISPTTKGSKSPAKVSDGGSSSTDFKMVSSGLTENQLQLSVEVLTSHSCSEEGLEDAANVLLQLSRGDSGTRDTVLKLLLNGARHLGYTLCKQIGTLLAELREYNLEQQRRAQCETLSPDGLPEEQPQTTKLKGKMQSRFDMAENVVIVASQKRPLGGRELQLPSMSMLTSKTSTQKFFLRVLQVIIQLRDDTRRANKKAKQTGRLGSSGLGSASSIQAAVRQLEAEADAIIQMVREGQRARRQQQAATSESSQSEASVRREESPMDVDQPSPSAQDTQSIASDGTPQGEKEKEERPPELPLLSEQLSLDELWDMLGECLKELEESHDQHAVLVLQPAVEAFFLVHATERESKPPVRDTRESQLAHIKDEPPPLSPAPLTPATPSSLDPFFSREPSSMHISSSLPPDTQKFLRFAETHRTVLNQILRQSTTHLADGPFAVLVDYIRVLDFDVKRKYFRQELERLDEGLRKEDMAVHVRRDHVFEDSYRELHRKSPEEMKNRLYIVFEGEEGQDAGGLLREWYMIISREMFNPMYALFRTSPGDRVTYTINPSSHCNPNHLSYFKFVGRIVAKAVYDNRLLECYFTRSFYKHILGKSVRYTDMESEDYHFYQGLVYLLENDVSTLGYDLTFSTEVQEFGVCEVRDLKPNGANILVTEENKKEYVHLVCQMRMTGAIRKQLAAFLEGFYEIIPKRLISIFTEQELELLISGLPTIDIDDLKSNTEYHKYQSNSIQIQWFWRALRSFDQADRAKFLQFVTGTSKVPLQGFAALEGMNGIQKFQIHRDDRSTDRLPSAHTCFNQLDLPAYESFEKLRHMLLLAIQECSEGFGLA

binding	Substance
binds	transportin-1 (TNPO1) (from UniProt Q92973 1-898)
binds	sequestosome-1 (SQSTM1) (from UniProt Q13501 1-440)
binds	E3 ligase Mule aka HUWE1 (from UniProt Q7Z6Z7 1-4374) (enzyme)
